In this assay the target is Flag-TMEM209 (transmembrane protein 209) overexpressed in MHCC-97H cells (UniProt Q96SK2). The experiment in a line: affinity purification with mass spectrometry; lysate of Flag-TMEM209 overexpressing MHCC-97H cells immunoprecipitated with Flag or IgG antibody; 10% SDS-PAGE, Coomassie staining, mass spectrometry.

By UniProt entry, the sequences of proteins in these tests, tags left out.
UniProt Q96SK2: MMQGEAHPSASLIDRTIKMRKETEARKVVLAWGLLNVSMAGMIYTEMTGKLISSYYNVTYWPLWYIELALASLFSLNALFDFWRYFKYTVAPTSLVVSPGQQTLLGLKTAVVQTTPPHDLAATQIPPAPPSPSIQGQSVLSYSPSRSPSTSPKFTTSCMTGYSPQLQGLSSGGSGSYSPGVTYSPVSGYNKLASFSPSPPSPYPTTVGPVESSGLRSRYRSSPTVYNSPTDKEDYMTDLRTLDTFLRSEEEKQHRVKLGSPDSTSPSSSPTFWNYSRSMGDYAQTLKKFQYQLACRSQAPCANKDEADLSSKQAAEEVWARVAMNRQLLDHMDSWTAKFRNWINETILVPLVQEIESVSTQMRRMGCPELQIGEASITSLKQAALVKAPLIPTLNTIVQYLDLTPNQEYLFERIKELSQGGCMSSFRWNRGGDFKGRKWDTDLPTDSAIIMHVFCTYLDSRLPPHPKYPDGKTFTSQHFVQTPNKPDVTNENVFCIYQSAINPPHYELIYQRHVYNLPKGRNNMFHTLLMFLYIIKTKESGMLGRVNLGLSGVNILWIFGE
UniProt Q14974: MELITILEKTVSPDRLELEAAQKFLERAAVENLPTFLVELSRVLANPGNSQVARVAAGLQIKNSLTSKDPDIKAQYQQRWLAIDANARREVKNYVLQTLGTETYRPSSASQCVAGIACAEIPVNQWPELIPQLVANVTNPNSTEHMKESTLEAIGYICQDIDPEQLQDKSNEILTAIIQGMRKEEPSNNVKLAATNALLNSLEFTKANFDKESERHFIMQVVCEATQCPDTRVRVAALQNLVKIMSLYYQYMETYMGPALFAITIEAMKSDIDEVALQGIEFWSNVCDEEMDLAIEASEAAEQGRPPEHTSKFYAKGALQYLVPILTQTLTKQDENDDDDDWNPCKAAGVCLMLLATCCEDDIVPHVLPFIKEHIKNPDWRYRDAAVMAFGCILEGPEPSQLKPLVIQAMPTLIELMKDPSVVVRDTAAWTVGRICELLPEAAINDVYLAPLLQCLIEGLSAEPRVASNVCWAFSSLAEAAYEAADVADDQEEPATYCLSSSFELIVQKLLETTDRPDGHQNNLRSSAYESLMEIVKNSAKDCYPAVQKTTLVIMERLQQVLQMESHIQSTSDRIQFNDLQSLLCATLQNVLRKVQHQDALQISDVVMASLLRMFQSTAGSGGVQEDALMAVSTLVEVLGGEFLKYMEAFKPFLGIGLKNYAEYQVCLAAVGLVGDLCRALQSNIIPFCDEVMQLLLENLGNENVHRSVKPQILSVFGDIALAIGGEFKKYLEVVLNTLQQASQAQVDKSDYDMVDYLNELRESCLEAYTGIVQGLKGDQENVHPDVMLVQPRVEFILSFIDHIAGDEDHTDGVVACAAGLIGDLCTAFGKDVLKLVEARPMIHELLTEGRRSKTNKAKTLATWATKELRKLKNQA

Results are given in words; binding and its absence hold for the method and conditions named. Binding seen in cells or lysates may run through a third protein. A yes stands for co-enrichment or nearness to the bait. Other partners may have been found.

In the case of “Karyopherin-β1 (KPNB1), endogenous in MHCC-97H and Huh7 cells (from UniProt Q14974 1-876)”, the binding result is given as “binds”.
